From the supplement of paper PMC7661543
± gives the standard deviation of the averaged measurements. Differences between knockout arms are mostly noise.

Tested on: MDA-MB-231
Assay: relative cell number vs DMSO control (72 h) (% of DMSO); higher = less growth inhibition (more cells)
Experimental: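 QMAP-Seq: a pool of 5 breast cancer cell lines (ZR-75-1, SKBR3, HCC-38, MDA-MB-231, BT-20), each carrying 12 doxycycline-inducible Cas9 sgRNA perturbations (11 knockouts plus non-targeting sgNT), was treated with compounds for 72 h at four 10-fold doses (10 nM-10 uM or 1 nM-1 uM range). Barcodes were amplified and sequenced, and cell number was interpolated from 293T spike-in standard curves. The result is expressed as % of the median of DMSO wells. Two biological replicates.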

CCC(C)(C)C(=O)O[C@H]1C[C@@H](C)C=C2C=C[C@H](C)[C@H](CC[C@@H]3C[C@@H](O)CC(=O)O3)[C@H]21 [Simvastatin]
Settings | relative cell number
sgRNA knockout: sgATF3, 10 nM | 89.1 ± 5.4
sgRNA knockout: sgATF3, 100 nM | 92.4 ± 19
sgRNA knockout: sgATF3, 1000 nM | 96.9 ± 15
sgRNA knockout: sgATF3, 10000 nM | 33.8 ± 3.7
sgRNA knockout: sgATF4, 10 nM | 97.1 ± 9.4
sgRNA knockout: sgATF4, 100 nM | 96 ± 7.3
sgRNA knockout: sgATF4, 1000 nM | 110 ± 12
sgRNA knockout: sgATF4, 10000 nM | 26.3 ± 6.2
sgRNA knockout: sgATF6, 10 nM | 109 ± 0.31
sgRNA knockout: sgATF6, 100 nM | 100 ± 6.2
sgRNA knockout: sgATF6, 1000 nM | 96.6 ± 7.8
sgRNA knockout: sgATF6, 10000 nM | 25.7 ± 0.4
sgRNA knockout: sgATG7, 10 nM | 93.2 ± 41
sgRNA knockout: sgATG7, 100 nM | 85.4 ± 20
sgRNA knockout: sgATG7, 1000 nM | 83.8 ± 1
sgRNA knockout: sgATG7, 10000 nM | 32 ± 4.6
sgRNA knockout: sgERN1, 10 nM | 93 ± 25
sgRNA knockout: sgERN1, 100 nM | 87.3 ± 30
sgRNA knockout: sgERN1, 1000 nM | 96.5 ± 0.9
sgRNA knockout: sgERN1, 10000 nM | 38.55 ± 0.26
sgRNA knockout: sgHSF1, 10 nM | 83.6 ± 5.6
sgRNA knockout: sgHSF1, 100 nM | 85.6 ± 24
sgRNA knockout: sgHSF1, 1000 nM | 85.6 ± 2.7
sgRNA knockout: sgHSF1, 10000 nM | 35.4 ± 0.95
sgRNA knockout: sgHSF2, 10 nM | 87.5 ± 14
sgRNA knockout: sgHSF2, 100 nM | 105.3 ± 0.51
sgRNA knockout: sgHSF2, 1000 nM | 94.06 ± 0.55
sgRNA knockout: sgHSF2, 10000 nM | 22.9 ± 1.6
sgRNA knockout: sgKEAP1, 10 nM | 101 ± 7.2
sgRNA knockout: sgKEAP1, 100 nM | 94.1 ± 18
sgRNA knockout: sgKEAP1, 1000 nM | 94.9 ± 23
sgRNA knockout: sgKEAP1, 10000 nM | 39.7 ± 3.3
sgRNA knockout: sgNFE2L2, 10 nM | 79.4 ± 0.42
sgRNA knockout: sgNFE2L2, 100 nM | 98.9 ± 5.4
sgRNA knockout: sgNFE2L2, 1000 nM | 84 ± 8.1
sgRNA knockout: sgNFE2L2, 10000 nM | 30.3 ± 5.2
sgRNA knockout: sgSLC35F2, 10 nM | 90.9 ± 9.9
sgRNA knockout: sgSLC35F2, 100 nM | 79.3 ± 0.9
sgRNA knockout: sgSLC35F2, 1000 nM | 89.7 ± 20
sgRNA knockout: sgSLC35F2, 10000 nM | 31.9 ± 8.1
sgRNA knockout: sgXBP1, 10 nM | 82.3 ± 3.9
sgRNA knockout: sgXBP1, 100 nM | 103 ± 36
sgRNA knockout: sgXBP1, 1000 nM | 78.7 ± 1.8
sgRNA knockout: sgXBP1, 10000 nM | 33.1 ± 2.1

CC(C)n1cnc2c(NCCc3ccc(O)cc3)nc(-c3csc4ccccc34)nc21 [StemRegenin1]
Settings | relative cell number
sgRNA knockout: sgATF3, 10 nM | 104 ± 42
sgRNA knockout: sgATF3, 100 nM | 99.2 ± 2.6
sgRNA knockout: sgATF3, 1000 nM | 124 ± 22
sgRNA knockout: sgATF3, 10000 nM | 70.9 ± 9.9
sgRNA knockout: sgATF4, 10 nM | 97.3 ± 29
sgRNA knockout: sgATF4, 100 nM | 135 ± 20
sgRNA knockout: sgATF4, 1000 nM | 102 ± 2
sgRNA knockout: sgATF4, 10000 nM | 69.1 ± 21
sgRNA knockout: sgATF6, 10 nM | 78.6 ± 7
sgRNA knockout: sgATF6, 100 nM | 135 ± 10
sgRNA knockout: sgATF6, 1000 nM | 93.4 ± 54
sgRNA knockout: sgATF6, 10000 nM | 76.1 ± 18
sgRNA knockout: sgATG7, 10 nM | 107 ± 8.4
sgRNA knockout: sgATG7, 100 nM | 124 ± 18
sgRNA knockout: sgATG7, 1000 nM | 109 ± 18
sgRNA knockout: sgATG7, 10000 nM | 64.7 ± 35
sgRNA knockout: sgERN1, 10 nM | 93.4 ± 9.2
sgRNA knockout: sgERN1, 100 nM | 107 ± 12
sgRNA knockout: sgERN1, 1000 nM | 99.9 ± 37
sgRNA knockout: sgERN1, 10000 nM | 56.1 ± 7.4
sgRNA knockout: sgHSF1, 10 nM | 92.5 ± 34
sgRNA knockout: sgHSF1, 100 nM | 89.7 ± 3.8
sgRNA knockout: sgHSF1, 1000 nM | 115 ± 12
sgRNA knockout: sgHSF1, 10000 nM | 59.8 ± 3.9
sgRNA knockout: sgHSF2, 10 nM | 93.4 ± 6.2
sgRNA knockout: sgHSF2, 100 nM | 107 ± 23
sgRNA knockout: sgHSF2, 1000 nM | 114 ± 28
sgRNA knockout: sgHSF2, 10000 nM | 59.2 ± 11
sgRNA knockout: sgKEAP1, 10 nM | 110 ± 29
sgRNA knockout: sgKEAP1, 100 nM | 116 ± 24
sgRNA knockout: sgKEAP1, 1000 nM | 105 ± 17
sgRNA knockout: sgKEAP1, 10000 nM | 55.9 ± 21
sgRNA knockout: sgNFE2L2, 10 nM | 98.5 ± 20
sgRNA knockout: sgNFE2L2, 100 nM | 97.6 ± 1.6
sgRNA knockout: sgNFE2L2, 1000 nM | 104 ± 30
sgRNA knockout: sgNFE2L2, 10000 nM | 74.4 ± 4
sgRNA knockout: sgSLC35F2, 10 nM | 117 ± 56
sgRNA knockout: sgSLC35F2, 100 nM | 127 ± 16
sgRNA knockout: sgSLC35F2, 1000 nM | 113 ± 23
sgRNA knockout: sgSLC35F2, 10000 nM | 67.9 ± 43
sgRNA knockout: sgXBP1, 10 nM | 104 ± 21
sgRNA knockout: sgXBP1, 100 nM | 104 ± 13
sgRNA knockout: sgXBP1, 1000 nM | 104 ± 28
sgRNA knockout: sgXBP1, 10000 nM | 68.5 ± 6.2

O=C1NC(=O)[C@@H](c2cn3c4c(cccc24)CCC3)[C@@H]1c1c[nH]c2ccccc12 [Tivantinib]
Settings | relative cell number
sgRNA knockout: sgATF3, 10 nM | 103 ± 1.7
sgRNA knockout: sgATF3, 100 nM | 87.2 ± 18
sgRNA knockout: sgATF3, 1000 nM | 38.4 ± 15
sgRNA knockout: sgATF3, 10000 nM | 34.7 ± 10
sgRNA knockout: sgATF4, 10 nM | 106 ± 44
sgRNA knockout: sgATF4, 100 nM | 55.3 ± 16
sgRNA knockout: sgATF4, 1000 nM | 27.1 ± 3.4
sgRNA knockout: sgATF4, 10000 nM | 16.3 ± 6.5
sgRNA knockout: sgATF6, 10 nM | 104 ± 4.5
sgRNA knockout: sgATF6, 100 nM | 99.1 ± 4.4
sgRNA knockout: sgATF6, 1000 nM | 39.1 ± 4.8
sgRNA knockout: sgATF6, 10000 nM | 31.2 ± 3.7
sgRNA knockout: sgATG7, 10 nM | 92.2 ± 1.2
sgRNA knockout: sgATG7, 100 nM | 78.4 ± 28
sgRNA knockout: sgATG7, 1000 nM | 34 ± 4
sgRNA knockout: sgATG7, 10000 nM | 27.4 ± 5.2
sgRNA knockout: sgERN1, 10 nM | 102 ± 13
sgRNA knockout: sgERN1, 100 nM | 76.2 ± 15
sgRNA knockout: sgERN1, 1000 nM | 48.1 ± 7.8
sgRNA knockout: sgERN1, 10000 nM | 30.6 ± 15
sgRNA knockout: sgHSF1, 10 nM | 99.4 ± 26
sgRNA knockout: sgHSF1, 100 nM | 101 ± 26
sgRNA knockout: sgHSF1, 1000 nM | 36.6 ± 7
sgRNA knockout: sgHSF1, 10000 nM | 21.5 ± 2.5
sgRNA knockout: sgHSF2, 10 nM | 94.6 ± 10
sgRNA knockout: sgHSF2, 100 nM | 64.3 ± 5.3
sgRNA knockout: sgHSF2, 1000 nM | 39.4 ± 5.5
sgRNA knockout: sgHSF2, 10000 nM | 29.3 ± 10
sgRNA knockout: sgKEAP1, 10 nM | 90.4 ± 19
sgRNA knockout: sgKEAP1, 100 nM | 85.7 ± 16
sgRNA knockout: sgKEAP1, 1000 nM | 40.2 ± 4.9
sgRNA knockout: sgKEAP1, 10000 nM | 23.8 ± 4.8
sgRNA knockout: sgNFE2L2, 10 nM | 97.9 ± 7.4
sgRNA knockout: sgNFE2L2, 100 nM | 88.2 ± 8.1
sgRNA knockout: sgNFE2L2, 1000 nM | 40.3 ± 5.4
sgRNA knockout: sgNFE2L2, 10000 nM | 30.4 ± 5.2
sgRNA knockout: sgSLC35F2, 10 nM | 82.2 ± 11
sgRNA knockout: sgSLC35F2, 100 nM | 93.4 ± 6.8
sgRNA knockout: sgSLC35F2, 1000 nM | 41.2 ± 2.3
sgRNA knockout: sgSLC35F2, 10000 nM | 26 ± 9.6
sgRNA knockout: sgXBP1, 10 nM | 101 ± 32
sgRNA knockout: sgXBP1, 100 nM | 98.32 ± 0.81
sgRNA knockout: sgXBP1, 1000 nM | 34.6 ± 2.2
sgRNA knockout: sgXBP1, 10000 nM | 21.3 ± 0.74
